Tested on: LPS-induced B-cell proliferation (spleen cells)
Test: LPS-induced B-cell proliferation ([3H]-thymidine uptake)
Format: cell-based, mouse
Conditions: SI = CC50/IC50
Procedure: Female BALB/c mice were sacrificed by cervical dislocation, and the spleens were removed aseptically. Mononuclear cell suspensions were prepared after cell debris and clumps were removed. Erythrocytes were depleted with ammonium chloride buffer solution. Lymphocytes were washed and resuspended in RPMI-1640 medium supplemented with 10% FBS, penicillin (100 U/mL), and streptomycin ([…]).
Fresh spleen cells were obtained from female BALB/c mice (18–20 g). The 5 × 10^5 spleen cells were cultured at the same conditions as those mentioned above. The cultures, in the presence or absence of various concentrations of compounds, were stimulated with 5 µg/mL of concanavalin A (ConA) or 10 µg/mL of lipopolysaccharide (LPS) to induce T-cells’ or B-cells’ proliferative responses, respectively. Proliferation was assessed in terms of uptake of [^3H]-thymidine during 8 h of pulsing with 25 µL/well of [^3H]-thymidine, and then cells were harvested onto glass fiber filters. The incorporated radioactivity was counted using a Beta scintillation counter (MicroBeta Trilux; PerkinElmer Life Sciences, Waltham, MA, USA). Cells treated without any stimuli were used as a negative control. The immunosuppressive activity of each compound was expressed as the concentration of compound that inhibited ConA-induced T-cell proliferation or LPS-induced B-cell proliferation to 50% (IC50) of the control value. […]

| SMILES | LPS-Induced B-Cell Proliferation SI |
| --- | --- |
| CC1=CCC2C(C)(C)CCCC2(C)C1CC12OC1C(=O)C(Cc1c(O)cc(CC(C)O)oc1=O)=CC2O (centres unmarked) [Compound 1, craterodoratin T] | >7.25 |
| CC1=CC[C@H]2C(C)(C)CCC[C@]2(C)[C@H]1C[C@@]12O[C@@H]1[C@H](O)C(CO)=C[C@H]2O [Compound 3, craterellin A] | >2.00 |
